# Source: PubChem BioAssay AID504467 (National Center for Advancing Translational Sciences (NCATS), 2011)
# In all, about 330,000 compounds went through this assay and about 7,700 (2.3%) were called active. The inconclusive results got no clear call from the source; some entries with a clear call stand among them for comparison. Calls follow the shape of the dose curve; as a rule, active = well fitted inhibition curve with a large enough effect; inconclusive = small, poorly fitted or top-dose-only effect, or effect the other way; inactive = flat fitted curve, though single readings scatter. Potencies beside an inconclusive call are fits to weak or partial responses and may not hold up.
# Assay: qHTS screen for small molecules that inhibit ELG1-dependent DNA repair in human embryonic kidney (HEK293T) cells expressing luciferase-tagged ELG1; also: nearly all actives have a fitted effect of over 55% in size
# Details: HEK293T ELG1-luciferase reporter, luminescence, 16 h, DNA damage induced by 5-fluorouridine; series mostly up to 46.1 µM
# How it was run: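 Step one: seed 2,000 cells per well. Step two: pin-transfer compound or DMSO alongside 5-fluorouridine. Step three: incubate 16 hr, 37 °C, 5% CO2. Step four: add ONE-Glo, wait 30 min, read luminescence.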
# Potency is read from the fitted curve at half-maximal effect.
row,SMILES,Potency
1,CC(C)Cn1c(=O)c2c(nc3n2CCCN3CCc2ccccc2)n(C)c1=O,"inconclusive: 18.4 µM [inhibitor, single point]"
2,N#Cc1ccccc1NC(=O)CSc1nccn1CCc1ccccc1,"inconclusive: 20.6 µM [activator, partial curve]"
3,O=C(O)COc1ccc(/C=N/NC(=O)C(O)(c2ccccc2)c2ccccc2)cc1,inactive
4,CSCCC(NC(=O)c1ccc([N+](=O)[O-])cc1Cl)C(=O)OC1CCCCC1=O (stereo not drawn),inactive
5,COC(=O)C1=C(O)/C(=C\c2ccc(OCC(=O)Nc3ccccc3)cc2)N=C1C,"inconclusive: 29.1 µM [activator, partial curve, poor fit]"
6,O=C(CSCc1ccc(Br)cc1)N1CCCC1,"inconclusive: 25.9 µM [activator, single point]"
7,CN1CCN(c2ccccc2NC(=O)c2ccc(N3CCCC3)c([N+](=O)[O-])c2)CC1,"inconclusive: 29.1 µM [inhibitor, single point]"
8,Cc1nn(Cc2ccccc2)c(C)c1CNC(=O)[C@H](C)N=C1NS(=O)(=O)c2ccccc21,"inconclusive: 6.31 µM [inhibitor, partial curve]"
9,C#CCOc1nc2c(c(=O)n(C)c(=O)n2C)n1Cc1ccccc1,active: 18.3 µM
10,COc1cccc(OCc2ccc(Cl)cc2)c1C#N,"inconclusive: 2.59 µM [activator, partial curve]"
11,C/C(Cc1ccccc1)=N/NC(=O)CNC(=O)C(c1ccccc1)c1ccccc1,"inconclusive: 1.83 µM [inhibitor, partial curve, poor fit]"
12,CC(Oc1ccccc1C(N)=O)C(=O)Nc1ccc(S(=O)(=O)N2CCCC2)cc1 (stereo not drawn),"inconclusive: 16.4 µM [inhibitor, single point]"
13,CCN(CC)c1ccc(N2C(=O)/C(=C/c3ccccn3)SC2=S)cc1,"inconclusive: 29.1 µM [activator, single point]"
14,CC(=O)NC1Sc2ccccc2N=C1c1ccccc1 (stereo not drawn),"inconclusive: 4.61 µM [activator, single point]"
15,Cc1c(C(=O)N2CCN(c3ncccn3)CC2)oc2ccc(Cl)cc12,"inconclusive: 35.5 µM [inhibitor, single point]"
16,CCOC(=O)C(C)N1C(=O)S/C(=C/c2cc(C)n(-c3ccccn3)c2C)C1=O (stereo not drawn),"inconclusive: 2.31 µM [activator, partial curve]"
17,COc1cc(/C=N/NC(=O)C2CC(=O)N(c3ccc(C)cc3)C2)cc(OC)c1OC (stereo not drawn),"inconclusive: 23.1 µM [inhibitor, partial curve]"
18,CCN1CCN(Cc2ccc(NC(=O)c3ccc(C)c(NC(=O)c4cccc5[nH]ccc45)c3)cc2C(F)(F)F)CC1,"inconclusive: 18.3 µM [activator, partial curve]"
19,COc1ccc(C(=O)CSc2nnc3ccccn23)cc1OC,"inconclusive: 25.9 µM [activator, single point]"
20,CN(CC(=O)Nc1ccc(Cl)c(Cl)c1)C(=O)CNC(=O)C1CCCCC1,inactive
21,COc1ccc2cc(CO)n(C)c2c1,inactive
22,CCN(C(=O)CSc1nnc(Cn2nnc3ccccc32)o1)c1nc(-c2ccccc2)cs1,active: 18.4 µM

row,SMILES,Potency
1,CCOc1ccc(-c2nnc3ccc(SCC(=O)Nc4cc(C)on4)nn23)cc1,"inconclusive: 16.4 µM [inhibitor, partial curve]"
2,CN1CCN(C2=C(Cl)C(=O)N(CCc3ccccc3)C2=O)CC1,"inconclusive: 10.3 µM [activator, partial curve]"
3,O=C(N/C=C/c1ccccc1)Nc1ccc(Cl)cc1,"inconclusive: 7.31 µM [activator, partial curve]"
4,Cc1ccc(CNCCCSc2nc(C)cc(C)n2)cc1,inactive
5,COc1ccc(C(=O)/C=C/NCc2ccc(F)cc2)cc1OC,"inconclusive: 6.51 µM [inhibitor, single point]"
6,Cc1[nH]c(C)c(S(=O)(=O)N(C)Cc2ccccc2)c1C(=O)N1CCCCC1,"inconclusive: 23.1 µM [activator, partial curve, poor fit]"
7,N#Cc1ccc(-c2ccc(OCC(=O)Nc3cccnc3)cc2)cc1,active: 14.6 µM
8,Cc1ccc(NC(=O)CSc2ccc(-c3ccc4c(c3)OCO4)nn2)cc1F,"inconclusive: 14.6 µM [activator, partial curve]"
9,Cc1oc2c(CN3CCCC3)c(O)ccc2c(=O)c1-c1ccccc1,inactive
10,COc1ccc(C(=O)c2ccc(OC)c(N)c2)cc1N,"inconclusive: 16.4 µM [activator, partial curve, poor fit]"
11,COc1ccc(CCNC(=O)c2cc(-c3ccco3)on2)cc1OC,inactive
12,COc1ccc(Br)cc1/C(C)=N/NC1=NCCN1,"inconclusive: 1.64 µM [inhibitor, full curve]"
13,O=c1[nH]c2ccccc2nc1/C=C/c1ccc(F)cc1,"inconclusive: 11.6 µM [activator, partial curve]"
14,O=C(CSc1nnc(NC(=O)Cc2ccc(F)cc2)s1)NCc1ccco1,"inconclusive: 11.6 µM [activator, partial curve, poor fit]"
15,Cn1c(C(=O)NCC2CCCO2)cc2c(=O)n3ccccc3nc21 (stereo not drawn),"inconclusive: 18.4 µM [activator, single point]"
16,Cc1ccc(NC(=O)OCc2cccs2)cc1,"inconclusive: 8.2 µM [activator, partial curve]"
17,Cc1c(C(=O)N2CCN(c3ccc(F)cc3)CC2)sc2nc3n(c(=O)c12)CCC3,"inconclusive: 25.9 µM [inhibitor, partial curve, poor fit]"
18,CCCn1nnnc1SCC(=O)c1ccc2c(c1)OCCO2,"inconclusive: 20.6 µM [activator, single point]"
19,CC1CCN(C(=O)C2CCN(c3nnc(-n4cccc4)s3)CC2)CC1,inactive
20,Cn1cc(Cl)c(C(=O)Nc2nccs2)n1,"inconclusive: 29.1 µM [activator, single point]"
21,COc1cccc(C(=O)Nc2cc(S(=O)(=O)N3CCCCC3)ccc2OC)c1,"inconclusive: 23.1 µM [inhibitor, single point]"

# Rewritten tab-delimited: entries from further up
row	SMILES	Potency
6	O=C(CSCc1ccc(Br)cc1)N1CCCC1	inconclusive: 25.9 µM [activator, single point]
7	CN1CCN(c2ccccc2NC(=O)c2ccc(N3CCCC3)c([N+](=O)[O-])c2)CC1	inconclusive: 29.1 µM [inhibitor, single point]
8	Cc1nn(Cc2ccccc2)c(C)c1CNC(=O)[C@H](C)N=C1NS(=O)(=O)c2ccccc21	inconclusive: 6.31 µM [inhibitor, partial curve]
9	C#CCOc1nc2c(c(=O)n(C)c(=O)n2C)n1Cc1ccccc1	active: 18.3 µM
10	COc1cccc(OCc2ccc(Cl)cc2)c1C#N	inconclusive: 2.59 µM [activator, partial curve]
11	C/C(Cc1ccccc1)=N/NC(=O)CNC(=O)C(c1ccccc1)c1ccccc1	inconclusive: 1.83 µM [inhibitor, partial curve, poor fit]
12	CC(Oc1ccccc1C(N)=O)C(=O)Nc1ccc(S(=O)(=O)N2CCCC2)cc1 (stereo not drawn)	inconclusive: 16.4 µM [inhibitor, single point]
13	CCN(CC)c1ccc(N2C(=O)/C(=C/c3ccccn3)SC2=S)cc1	inconclusive: 29.1 µM [activator, single point]
14	CC(=O)NC1Sc2ccccc2N=C1c1ccccc1 (stereo not drawn)	inconclusive: 4.61 µM [activator, single point]
15	Cc1c(C(=O)N2CCN(c3ncccn3)CC2)oc2ccc(Cl)cc12	inconclusive: 35.5 µM [inhibitor, single point]
16	CCOC(=O)C(C)N1C(=O)S/C(=C/c2cc(C)n(-c3ccccn3)c2C)C1=O (stereo not drawn)	inconclusive: 2.31 µM [activator, partial curve]
17	COc1cc(/C=N/NC(=O)C2CC(=O)N(c3ccc(C)cc3)C2)cc(OC)c1OC (stereo not drawn)	inconclusive: 23.1 µM [inhibitor, partial curve]
18	CCN1CCN(Cc2ccc(NC(=O)c3ccc(C)c(NC(=O)c4cccc5[nH]ccc45)c3)cc2C(F)(F)F)CC1	inconclusive: 18.3 µM [activator, partial curve]
